Laboratory results taken from paper PMC4697807, “Novel Zn^2+ Modulated GPR39 Receptor Agonists Do Not Drive Acute Insulin Secretion in Rodents” (PLoS ONE, 2015).

What was measured:
[1] = Isothermal titration calorimetry (ITC) of compound with ZnCl2; conditions: ITC at 30°C; single site binding model; ± SD
Experimental: To determine the binding affinities of the discussed compounds for Zn^2+, isothermal titration calorimetry experiments were conducted on a MicroCal ITC-200 system (Malvern Instruments) at a temperature of 30°C. The compounds, provided as a DMSO stock solution of 10 mM, were diluted in 50 mM HEPES (pH 7.4) and 150 mM NaCl to reach a final nominal concentration of 400 μM (= 4% (v/v) final DMSO concentration). Complete titration of the compounds was typically achieved by injecting 27 x 1.3 μl aliquots of 5 mM ZnCl2 provided in a matching buffer. The thermodynamic binding parameters were extracted by non-linear regression analysis of the binding isotherms (Microcal Origin version 7.0 software package). A single site binding model was applied, yielding binding enthalpy (ΔH), stoichiometry (n), entropy (ΔS), and association constant (Ka). All experiments have been performed in triplicate to allow for error estimations.

[2] = PKPD analysis: in vivo exposures versus in vitro potencies; parameters: species or system mouse
[3] = each of the screens in the presence of Zn^2+, lean mice

Compound	n value (stoichiometry) [1]	in vivo exposure versus in vitro potency ratio ([2]; DMR assay in the absence of Zn^2+)	in vivo exposure versus in vitro potency ratio [2, 3]	ΔH (binding enthalpy) [1]
N#Cc1ccc(OCCn2ccnc2)c(OCCn2ccnc2)c1 [AZ1395, 3,4-bis-(2-imidazol-1-ylethoxy)-benzonitrile]	0.93 ± 0.12	> 10	> 10	
Cc1nc(-c2nc3c(c(=O)[nH]2)CN(C(=O)c2cccc(Cl)c2F)CC3)cs1 [AZ7914, 6-(3-chloro-2-fluoro-benzoyl)-2-(2-methylthiazol-4-yl)-3,5,7,8-tetrahydropyrido-[4,3-d]pyrimidin-4-one]	0.56 ± 0.08		> 10	-3.00 ± 0.71 kcal/mol
Cc1nc2c(C(=O)O)cnn2c(O)c1Cc1ccc(Cl)cc1 [AZ4237, 6-[(4-chlorophenyl)methyl]-7-hydroxy-5-methyl-pyrazolo[1,5-a]pyrimidine-3-carboxylic acid]	1.18 ± 0.02		> 10	-1.30 ± 0.25 kcal/mol
